Consider one molecule from paper PMC10710061.

This experiment has as its target SAP05 N77R (purified, for ITC) (Aster Yellows phytoplasma strain Witches Broom (AYWB)). Briefly: condition: 20 μM SAP05 mutant in the cell, 200 μM SPL5^ZnF from the syringe; ITC; SPL5^ZnF from the syringe (250 μM for wild-type SAP05, 200 μM for the SAP05–Rpn10^vWA complex or SAP05 mutants) into 20 μM partner in the cell; 25 °C, 20 mM HEPES pH 7.5, 150 mM NaCl; one-site binding model; both purified.

These are yes or no findings as the source states them, for the method shown.

B1: ZnF domain of Arabidopsis thaliana SPL5, residues 60 to 127 (domain or fragment, UniProt Q9S758 60-127)
chain: SRLCQVDRCTVNLTEAKQYYRRHRVCEVHAKASAATVAGVRQRFCQQCSRFHELPEFDEAKRSCRRRL
With B1, the binding result is recorded as “no binding”.
